# At least one compound was matched to its structure with a doubt left.
# What was measured:
# [1] = tested on: human MDA-MB-231 breast tumors; assay: Enzyme prodrug combination therapy with rapamycin on MDA-MB-231 tumors; assay type: in vivo, SCID mice; details: rapamycin 5 mg/kg IP in addition to Met-AV 10 mg/kg IP and selenomethionine 5 mg/kg IP; versus enzyme prodrug therapy alone
# 4T1 lung metastasis = assay: Lung metastasis nodules in 4T1-TdTomato model; assay type: in vivo, BALB/c mouse; details: after 3 weeks of treatment
# From the text: A Leica stereomicroscope with an automated ImageJ macro was used to quantify fluorescent nodules in the lung. […] Median nodule size on the log scale is marked. Total nodules per group (n=3 mice) is summed and shown.
# 4T1 tumor sections = assay: Percent necrosis in 4T1 tumor sections (hematoxylin and eosin); assay type: in vivo, BALB/c mice; details: after 3 weeks of treatment
# [2] = tested on: hypoxia-inducible factor-1 alpha (HIF-1-α); assay: Immunohistochemistry staining of HIF-1-α in tumor sections; assay type: in vivo, BALB/c mice; details: after 3 weeks of treatment
# From the text: Immunohistochemistry staining of HIF-1-α with DAB development was quantified from whole section images of mice sacrificed after 3 weeks of treatment. Data is presented as mean±SE (n=3 mice). Statistical significance between groups is indicated by +(p<0.01) or * (p<0.001).
smiles,measurement,setting,value
"CO[C@H]1C[C@@H]2CC[C@@H](C)[C@@](O)(O2)C(=O)C(=O)N2CCCC[C@H]2C(=O)O[C@H]([C@H](C)C[C@@H]2CC[C@@H](O)[C@H](OC)C2)CC(=O)[C@H](C)/C=C(\C)[C@@H](O)[C@@H](OC)C(=O)[C@H](C)C[C@H](C)/C=C/C=C/C=C/1C [Rap, rapamycin]",Antitumor effect,[1],large antitumor effect
same,"Lung metastatic nodules, number and size",4T1 lung metastasis,only a minimal benefit
same,Percent necrosis in tumor sections,4T1 tumor sections,Reduced necrosis
same,HIF-1-α expression in tumor sections,[2],decreased levels of HIF-1-α

# Reference: patent publication US9987241B2, “Enzyme conjugate and prodrug cancer therapy” (The Board of Regents of the University of Oklahoma, priority 2014, dated 2018)
